In article PMC7819943, “Rice protein-binding microarrays: a tool to detect cis-acting elements near promoter regions in rice”:
The list shows a part of the results.

By UniProt entry, the sequences of proteins in these tests, tags left out.
UniProt Q0JBA9, entry or part of it: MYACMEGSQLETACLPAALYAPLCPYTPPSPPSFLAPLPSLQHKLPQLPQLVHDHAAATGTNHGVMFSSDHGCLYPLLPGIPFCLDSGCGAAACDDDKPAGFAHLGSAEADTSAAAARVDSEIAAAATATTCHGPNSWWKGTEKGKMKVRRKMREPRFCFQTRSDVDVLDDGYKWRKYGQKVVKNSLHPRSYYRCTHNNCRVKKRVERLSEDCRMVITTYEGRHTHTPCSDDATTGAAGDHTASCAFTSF

Target: OsWRKY34 (Oryza sativa, UniProt Q0JBA9 1-250)
Test: protein-binding microarray (RPBM); PBS, 2% BSA, 51.3 ng/ul salmon testes DNA, 50 uM zinc acetate, 200 nM TF, 25 C, 1 h; high values mean tight binding
Conditions: protein: recombinant; tags: N-terminal polyhistidine and DsRed monomer fusion (pET32a); label: CyDye5-dUTP incorporated in the synthesized complementary strand; 3' TTTTT single-stranded linker to array surface; dsDNA, one strand shown
In short: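 Using Ni–NTA, transcription factors fused N-terminally to polyhistidine and DsRed were purified after expression in E. coli BL21-CodonPlus. These were incubated at 200 nM with a blocked, double-stranded custom Agilent array for 1 h at 25 °C in a buffer containing 50 µM zinc acetate, and the array was washed. The binding signal is per-feature fluorescence intensity (arbitrary units) on an Axon 4000B scanner.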

Sequence | binding signal
CCCTCCCGCCTATTCGTCCGCCGCCTCAACCGGGACACCGCGGAGTCACCTAGTGCAG | 8580 fluorescence intensity (a.u.)
GTCATTGTGCCCTGCAGCCTGTCTTGTTTCAAAATATAATCGGAGTCACCTAGTGCAG | 9970 fluorescence intensity (a.u.)
GCCCATTTTCCCAACCCACCTCTCTCGTTTTCCGCACGTACGGAGTCACCTAGTGCAG | 10700 fluorescence intensity (a.u.)
CCATTTGCTCGCTGTTTAACGTCCTTCCATCAACCATGTGCGGAGTCACCTAGTGCAG | 10700 fluorescence intensity (a.u.)
ATAATTTATTTGGTCACTTCCATGTTCATGACTAGTCTTCCGGAGTCACCTAGTGCAG | 9480 fluorescence intensity (a.u.)
GTCTGCTTATGATGCTTCGTTCTCTCCGCGCTCCGTGTCCCGGAGTCACCTAGTGCAG | 8620 fluorescence intensity (a.u.)
GGATAGCCGGAACGCGAAGCGGGAGGAGGCGGTGGCGGGGCGGAGTCACCTAGTGCAG | 10500 fluorescence intensity (a.u.)
AGACCATGTTCAACTTCATCTACCGTCTTAAATTTGACTTCGGAGTCACCTAGTGCAG | 8420 fluorescence intensity (a.u.)
GTAGTAGTTCTTTTTTCCTTCCGAGATCTTCCATAGTCACCGGAGTCACCTAGTGCAG | 10500 fluorescence intensity (a.u.)
AGCTTGTTGCATTTCCTGCTTCTTACTGCTACGAATTGTTCGGAGTCACCTAGTGCAG | 8560 fluorescence intensity (a.u.)
TTCCAGTATTTCTCGTCGCTCTCGATGCAATTGAAAAAAACGGAGTCACCTAGTGCAG | 8710 fluorescence intensity (a.u.)
TATTATTATTATTATTATTATCATGCCCTGTTCCTTTTTTCGGAGTCACCTAGTGCAG | 8710 fluorescence intensity (a.u.)
TACTACTACCCATGGTCCTGGAATTTTCACCCGCATCTGCCGGAGTCACCTAGTGCAG | 8300 fluorescence intensity (a.u.)
ACATGCCATTTCTATTTACTCCTATCAACTCTCATCAATGCGGAGTCACCTAGTGCAG | 9810 fluorescence intensity (a.u.)
TTGCATGTCTTTCTGAGAAATTTTTTCAGTTGAATTTATCCGGAGTCACCTAGTGCAG | 8130 fluorescence intensity (a.u.)
GTGGTGGGGAAAGGATAGGGATAAAACTTTGATATTTTTTCGGAGTCACCTAGTGCAG | 8760 fluorescence intensity (a.u.)
AAGTTGACCAAAAGTCTTCACCTAGTCGTCGTCTTCCCTCCGGAGTCACCTAGTGCAG | 12000 fluorescence intensity (a.u.)
TGCAATGTCCGCTTTCTATGTAATTCGAGCTACTCCAGGTCGGAGTCACCTAGTGCAG | 8270 fluorescence intensity (a.u.)
ATCATGCAATAATACAAGTTTCGTTTTGCGTCCTCCCGAACGGAGTCACCTAGTGCAG | 8200 fluorescence intensity (a.u.)
GCCTCTCGCCTGCAAGCATCATCTGCTTCTCCTCTAACTCCGGAGTCACCTAGTGCAG | 8560 fluorescence intensity (a.u.)
GGGCTTTCTTCCTAGTAGATGTTAATGGATGTAGATATATCGGAGTCACCTAGTGCAG | 12200 fluorescence intensity (a.u.)

Sequence | binding signal
TTGGCTTCTATTCTTACCCTTCAGATGGTTGTACCTCCCACGGAGTCACCTAGTGCAG | 9410 fluorescence intensity (a.u.)
GTGCGCTTTGGCCGGAGGCACCGTCGCCGCCTGCTATATCCGGAGTCACCTAGTGCAG | 8040 fluorescence intensity (a.u.)
TAGTTTAATGTTTCCGTATTTGTTACCGGTTTCCGATCTGCGGAGTCACCTAGTGCAG | 11400 fluorescence intensity (a.u.)
GCCGCCGACCTACTCTGTCACACACACGCTTCCCGAACTCCGGAGTCACCTAGTGCAG | 14800 fluorescence intensity (a.u.)
TGCACTGGGCTCCCATCTGAATGTCCTTATGCCAACCTCCCGGAGTCACCTAGTGCAG | 8520 fluorescence intensity (a.u.)
TTTTTTTTTGTTTATTTCGTTTCTCTTCCGTCTTTTTTTTCGGAGTCACCTAGTGCAG | 12900 fluorescence intensity (a.u.)
CATCTCCTCCGTTTTCCGCGCACATGTTTTTTAAACTGCTCGGAGTCACCTAGTGCAG | 10400 fluorescence intensity (a.u.)
GCCCAGCACCAGCGCACCGCCACCCCATTTTCTTTTATTCCGGAGTCACCTAGTGCAG | 9420 fluorescence intensity (a.u.)
CTCTCTCCGTCTCATAATATAAAGGATTTTAAGTTTTTACCGGAGTCACCTAGTGCAG | 8100 fluorescence intensity (a.u.)
TGCCGTGCACCTCTTTCCTCGCCGCCTAACTCCTCTGCGGCGGAGTCACCTAGTGCAG | 11400 fluorescence intensity (a.u.)
TTCCTGTGATCCTCTGTACATTAAGTCTCGACGTGGGCCACGGAGTCACCTAGTGCAG | 10900 fluorescence intensity (a.u.)
GCGTGCCGGGGTTGGGGCTGGCTGTACATACAAATCTTACCGGAGTCACCTAGTGCAG | 15200 fluorescence intensity (a.u.)
CTGTGCATCTTTTGTTTTTCCTTTTTTTCCACACCCAATCCGGAGTCACCTAGTGCAG | 8540 fluorescence intensity (a.u.)
AACCCAGCTCTCAAAAGCCCACTGCAACCGCTTAATTACTCGGAGTCACCTAGTGCAG | 8350 fluorescence intensity (a.u.)
TCCATTCCCGCGCCGGGTTTTGGGGTGGTGTGTTGATGCGCGGAGTCACCTAGTGCAG | 10900 fluorescence intensity (a.u.)
GTCGTTGTGTGCGTGCATGGCACTGTTGATGTCGAGTATACGGAGTCACCTAGTGCAG | 8370 fluorescence intensity (a.u.)
CAGGCCGCTACTACCACCAAACCCCATTTCGTTCATTTCACGGAGTCACCTAGTGCAG | 9530 fluorescence intensity (a.u.)
CCATCTTAACGCGCCGCGTCCACCCGAGCCGGTTTCTGTACGGAGTCACCTAGTGCAG | 9440 fluorescence intensity (a.u.)
ATAGTGCCAAGTCAAACATTTTTAGCTTTGATTATTAATACGGAGTCACCTAGTGCAG | 11300 fluorescence intensity (a.u.)
ATTTTCTTCCCATGGCTGCCTCCACGACGCCCGCGCCTTCCGGAGTCACCTAGTGCAG | 11600 fluorescence intensity (a.u.)
GGTGCAGCGGTGGTGGCGTTGGGGTGGGCATGGCGGCTCGCGGAGTCACCTAGTGCAG | 13100 fluorescence intensity (a.u.)

An excerpt of these results, as labelled records:
TGCACTGGGCTCCCATCTGAATGTCCTTATGCCAACCTCCCGGAGTCACCTAGTGCAG
  binding signal: 8520 fluorescence intensity (a.u.)
TTTTTTTTTGTTTATTTCGTTTCTCTTCCGTCTTTTTTTTCGGAGTCACCTAGTGCAG
  binding signal: 12900 fluorescence intensity (a.u.)
